Data from patent US20130096104A1, “IMIDAZOPYRIDINE COMPOUNDS, COMPOSITIONS AND METHODS OF USE” (GENENTECH, INC., priority 2010, published 2013).
Some results were stated once for a whole list of compounds, not compound by compound.

Target: T1, TYK2 kinase domain (Homo sapiens, UniProt P29597)
T1 construct: The activity of the isolated JAK1, JAK2 or TYK2 kinase domain was measured
T1 sequence (P29597 897-1176 limits assumed): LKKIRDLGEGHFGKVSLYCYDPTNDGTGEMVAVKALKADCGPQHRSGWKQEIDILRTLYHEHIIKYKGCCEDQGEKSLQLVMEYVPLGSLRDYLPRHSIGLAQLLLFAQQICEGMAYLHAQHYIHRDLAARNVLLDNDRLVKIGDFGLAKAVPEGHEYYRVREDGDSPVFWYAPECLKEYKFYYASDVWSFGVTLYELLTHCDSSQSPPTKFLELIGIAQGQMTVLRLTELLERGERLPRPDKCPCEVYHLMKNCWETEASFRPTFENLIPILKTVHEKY
Assay: TYK2 inhibition assay (Example A, Caliper LabChip peptide phosphorylation)
Format: biochemical
Details: tested in the above assays; less than about
Description: The activity of the isolated JAK1, JAK2 or TYK2 kinase domain was measured by monitoring phosphorylation of a peptide derived from JAK3 ([…] fluorescently labeled on the N-terminus with 5-carboxyfluorescein using the Caliper LabChip technology (Caliper Life Sciences, Hopkinton, Mass.). […] Reactions were incubated at 22° C. in 384-well polypropylene microtiter plates for 30 minutes and then stopped by addition of 25 uL of an EDTA containing solution (100 mM Hepes pH 7.2, 0.015% Brij-35, 150 mM EDTA), resulting in a final EDTA concentration of 50 mM. After termination of the kinase reaction, the proportion of phosphorylated product was determined as a fraction of total peptide substrate using the Caliper LabChip 3000 according to the manufacturer's specifications. Ki values were then determined using the Morrison tight binding model. Morrison, J. F., Biochim. Biophys. Acta. 185:269-296 (1969); William, J. W. and Morrison, J. F., Meth. Enzymol., 63:437-467 (1979).

For `O[C@H]1CCN(c2cc(Nc3nccc4nc(-c5c(F)cccc5Cl)[nH]c34)ncn2)C1` [Example 264, (S)-1-(6-(2-(2-chloro-6-fluorophenyl)-3H-imidazo[4,5-c]pyridin-4-ylamino)pyrimidin-4-yl)pyrrolidin-3-ol], the IC50 was less than 5 µM.
Work on `Cc1cc(Nc2nccc3nc(-c4c(Cl)cc(CO)cc4Cl)[nH]c23)ncn1` [Example 265, (3,5-dichloro-4-(4-(6-methylpyrimidin-4-ylamino)-3H-imidazo[4,5-c]pyridin-2-yl)phenyl)methanol] yielded an IC50 of less than 5 µM.
`Cc1cc(Nc2nccc3nc(-c4c(Cl)cc(CN)cc4Cl)[nH]c23)ncn1` [Example 266, 2-(4-(aminomethyl)-2,6-dichlorophenyl)-N-(6-methylpyrimidin-4-yl)-3H-imidazo[4,5-c]pyridin-4-amine] showed an IC50 of less than 5 µM.
`Nc1cc(Nc2nccc3nc(-c4c(F)cccc4Cl)[nH]c23)ncn1` [Example 268, N4-(2-(2-chloro-6-fluorophenyl)-3H-imidazo[4,5-c]pyridin-4-yl)pyrimidine-4,6-diamine] showed an IC50 of less than 5 µM.
With `Nc1cc(Nc2nccc3nc(-c4c(Cl)cc(Cl)cc4Cl)[nH]c23)ncn1` [Example 269, N4-(2-(2,4,6-trichlorophenyl)-3H-imidazo[4,5-c]pyridin-4-yl)pyrimidine-4,6-diamine] the IC50 was less than 5 µM.
Compound `CNc1cc(Nc2nccc3nc(-c4c(Cl)cccc4Cl)[nH]c23)ncn1` [Example 270, N4-(2-(2,6-dichlorophenyl)-3H-imidazo[4,5-c]pyridin-4-yl)-N6-methylpyrimidine-4,6-diamine] has an IC50 of less than 5 µM.
Compound `OCCN(CCO)c1cc(Nc2nccc3nc(-c4c(Cl)cccc4Cl)[nH]c23)ncn1` [Example 271, 2,2′-(6-(2-(2,6-dichlorophenyl)-3H-imidazo[4,5-c]pyridin-4-ylamino)pyrimidin-4-ylazanediyl)diethanol] has an IC50 of less than 5 µM.
`OCCN(CCO)c1cc(Nc2nccc3nc(-c4c(F)cccc4Cl)[nH]c23)ncn1` [Example 272, 2,2′-(6-(2-(2-chloro-6-fluorophenyl)-3H-imidazo[4,5-c]pyridin-4-ylamino)pyrimidin-4-ylazanediyl)diethanol] gave an IC50 of less than 5 µM.
`O=C(Nc1nccc2nc(-c3c(Cl)cccc3Cl)[nH]c12)NC1CC1` [Example 273, 1-cyclopropyl-3-(2-(2,6-dichlorophenyl)-3H-imidazo[4,5-c]pyridin-4-yl)urea] gave an IC50 of less than 5 µM.
Work on `O=C(Nc1nccc2nc(-c3c(F)cccc3Cl)[nH]c12)NC1CC1` [Example 274, 1-(2-(2-chloro-6-fluorophenyl)-3H-imidazo[4,5-c]pyridin-4-yl)-3-cyclopropylurea] yielded an IC50 of less than 5 µM.
`CN(C)Cc1cc(Nc2nccc3nc(-c4c(Cl)cccc4Cl)[nH]c23)ncn1` [Example 275, 2-(2,6-dichlorophenyl)-N-(6-((dimethylamino)-methyl)pyrimidin-4-yl)-3H-imidazo[4,5-c]pyridin-4-amine] was tested, and the IC50 was less than 5 µM.
`CNCc1cc(Cl)c(-c2nc3ccnc(NC(=O)C4CC4)c3[nH]2)c(Cl)c1` [Example 276, N-(2-(2,6-dichloro-4-((methylamino)-methyl)phenyl)-3H-imidazo[4,5-c]pyridin-4-yl)cyclopropane-carboxamide] showed an IC50 of less than 5 µM.
Compound `CNCc1cc(Cl)c(-c2nc3ccnc(Nc4cc(C)ncn4)c3[nH]2)c(Cl)c1` [Example 277, 2-(2,6-dichloro-4-((methylamino)-methyl)phenyl)-N-(6-methylpyrimidin-4-yl)-3H-imidazo[4,5-c]pyridin-4-amine] has an IC50 of less than 5 µM.
`CNCc1cc(Cl)c(-c2nc3ccnc(Nc4cc(C)nc(C)n4)c3[nH]2)c(Cl)c1` [Example 278, 2-(2,6-dichloro-4-((methylamino)-methyl)phenyl)-N-(2,6-dimethylpyrimidin-4-yl)-3H-imidazo[4,5-c]pyridin-4-amine] gave an IC50 of less than 5 µM.
Compound `CN(C)Cc1cc(Cl)c(-c2nc3ccnc(NC(=O)C4CC4)c3[nH]2)c(Cl)c1` [Example 279, N-(2-(2,6-dichloro-4-((dimethylamino)-methyl)phenyl)-3H-imidazo[4,5-c]pyridin-4-yl)cyclopropane-carboxamide] has an IC50 of less than 5 µM.
Compound `Cc1cc(Nc2nccc3nc(-c4c(Cl)cc(CN(C)C)cc4Cl)[nH]c23)ncn1` [Example 280, 2-(2,6-dichloro-4-((dimethylamino)-methyl)phenyl)-N-(6-methylpyrimidin-4-yl)-3H-imidazo[4,5-c]pyridin-4-amine] has an IC50 of less than 5 µM.
`Cc1cc(Nc2nccc3nc(-c4c(Cl)cc(CN(C)C)cc4Cl)[nH]c23)nc(C)n1` [Example 281, 2-(2,6-dichloro-4-((dimethylamino)-methyl)phenyl)-N-(2,6-dimethylpyrimidin-4-yl)-3H-imidazo[4,5-c]pyridin-4-amine] showed an IC50 of less than 5 µM.
`O=C(Nc1nccc2nc(-c3c(Cl)cc(CN4CCOCC4)cc3Cl)[nH]c12)C1CC1` [Example 282, N-(2-(2,6-dichloro-4-(morpholinomethyl)-phenyl)-3H-imidazo[4,5-c]pyridin-4-yl)cyclopropane-carboxamide] showed an IC50 of less than 5 µM.
In the case of `Cc1cc(Nc2nccc3nc(-c4c(Cl)cc(CN5CCOCC5)cc4Cl)[nH]c23)ncn1` [Example 283, 2-(2,6-dichloro-4-(morpholinometh-yl)phenyl)-N-(6-methylpyrimidin-4-yl)-3H-imidazo[4,5-c]pyridin-4-amine], the IC50 is reported as less than 5 µM.
Compound `Cc1cc(Nc2nccc3nc(-c4c(Cl)cc(CN5CCOCC5)cc4Cl)[nH]c23)nc(C)n1` [Example 284, 2-(2,6-dichloro-4-(morpholinomethyl)-phenyl)-N-(2,6-dimethylpyrimidin-4-yl)-3H-imidazo[4,5-c]pyridin-4-amine] has an IC50 of less than 5 µM.
With `Cc1cc(Nc2nccc3nc(-c4c(Cl)cncc4Cl)[nH]c23)nc(C)n1` [Example 285, 2-(3,5-dichloropyridin-4-yl)-N-(2,6-dimethylpyrimidin-4-yl)-3H-imidazo[4,5-c]pyridin-4-amine] the IC50 was less than 5 µM.
`O=C(Nc1nccc2nc(-c3c(Cl)cncc3Cl)[nH]c12)C1CC1` [Example 286, N-(2-(3,5-dichloropyridin-4-yl)-3H-imidazo[4,5-c]pyridin-4-yl)cyclopropane-carboxamide] was tested, and the IC50 was less than 5 µM.
`Cc1cc(Nc2nccc3nc(-c4c(Cl)cncc4Cl)[nH]c23)ncn1` [Example 287, 2-(3,5-dichloropyridin-4-yl)-N-(6-methylpyrimidin-4-yl)-3H-imidazo[4,5-c]pyridin-4-amine] gave an IC50 of less than 5 µM.
For `OCc1cc(Nc2nccc3nc(-c4c(Cl)cncc4Cl)[nH]c23)ncn1` [Example 288, (6-(2-(3,5-dichloropyridin-4-yl)-3H-imimidazo[4,5-c]pyridin-4-ylamino)-pyrimidin-4-yl)methanol], the IC50 was less than 5 µM.
`N#Cc1cc(Nc2nccc3nc(-c4c(Cl)cncc4Cl)[nH]c23)ncn1` [Example 289, 6-(2-(3,5-dichloropyridin-4-yl)-3H-imidazo[4,5-c]pyridin-4-ylamino)pyrimidine-4-carbonitrile] gave an IC50 of less than 5 µM.
For `Nc1cc(Nc2nccc3nc(-c4c(Cl)cncc4Cl)[nH]c23)ncn1` [Example 290, N4-(2-(3,5-dichloropyridin-4-yl)-3H-imidazo[4,5-c]pyridin-4-yl)pyrimidine-4,6-diamine], the IC50 was less than 5 µM.
In the case of `N#Cc1cc(Cl)c(-c2nc3ccnc(Nc4cc(N)ncn4)c3[nH]2)c(Cl)c1` [Example 291, 4-(4-(6-aminopyrimidin-4-ylamino)-3H-imidazo[4,5-c]pyridin-2-yl)-3,5-dichlorobenzonitrile], the IC50 is reported as less than 5 µM.
`O=C(Nc1nccc2nc(-c3c(Cl)cccc3Cl)[nH]c12)[C@@H]1C[C@H]1F` [Example 292, (1S,2R)-N-(2-(2,6-dichlorophenyl)-3H-imidazo[4,5-c]pyridin-4-yl)-2-fluorocyclopropane-carboxamide] showed an IC50 of less than 5 µM.
With `O=C(Nc1nccc2nc(-c3c(Cl)cccc3Cl)[nH]c12)[C@H]1C[C@@H]1F` [Example 293, (1R,2S)-N-(2-(2,6-dichlorophenyl)-3H-imidazo[4,5-c]pyridin-4-yl)-2-fluorocyclopropane-carboxamide] the IC50 was less than 5 µM.
For `CC(=O)Nc1cc(Nc2nccc3nc(-c4c(Cl)cccc4Cl)[nH]c23)ncn1` [Example 294, N-(6-(2-(2,6-dichlorophenyl)-3H-imidazo[4,5-c]pyridin-4-ylamino)pyrimidin-4-yl)acetamide], the IC50 was less than 5 µM.
With `CC(C)(O)c1cc(Nc2nccc3nc(-c4c(Cl)cccc4Cl)[nH]c23)ncn1` [Example 295, 2-(6-(2-(2,6-dichlorophenyl)-3H-imidazo[4,5-c]pyridin-4-ylamino)pyrimidin-4-yl)propan-2-ol] the IC50 was less than 5 µM.
For `CC(=O)Nc1cc(Nc2nccc3nc(-c4c(F)cccc4Cl)[nH]c23)ncn1` [Example 296, N-(6-(2-(2-chloro-6-fluorophenyl)-3H-imidazo[4,5-c]pyridin-4-ylamino)pyrimidin-4-yl)acetamide], the IC50 was less than 5 µM.
In the case of `CC(C)(O)c1cc(Nc2nccc3nc(-c4c(F)cccc4Cl)[nH]c23)ncn1` [Example 297, 2-(6-(2-(2-chloro-6-fluorophenyl)-3H-imidazo[4,5-c]pyridin-4-ylamino)pyrimidin-4-yl)propan-2-ol], the IC50 is reported as less than 5 µM.
With `CN(C)CC(=O)Nc1nccc2nc(-c3c(F)cccc3Cl)[nH]c12` [Example 298, N-(2-(2-chloro-6-fluorophenyl)-3H-imidazo[4,5-c]pyridin-4-yl)-2-(dimethylamino)-acetamide] the IC50 was less than 5 µM.
